Results: article PMC6766977 (International Journal of Cancer, 2019)

System: LNCaP
Experiment: Cell viability
Type: cell-based, human
Settings: read-out: IC50 inhibition of cell viability LNCaP; 1 nM R1881, 6 days; mean ± SD

CNC(=O)c1ccc(N2C(=S)N(c3ccc(C#N)c(C(F)(F)F)c3)C(=O)C2(C)C)cc1F [Enzalutamide, reference compound]
IC50: 0.77 ± 0.36 µM
